Experimental data reported in the supplement of paper PMC6411743.
± gives the standard deviation of the averaged measurements. This is a selection; strong and weak results do not stand in their true shares. Small differences around the control level are noise.

Amino acid sequences for entries named in this document (tags omitted). A change or cut given only in a name is not applied to a line headed by its entry.
UniProt Q53H96: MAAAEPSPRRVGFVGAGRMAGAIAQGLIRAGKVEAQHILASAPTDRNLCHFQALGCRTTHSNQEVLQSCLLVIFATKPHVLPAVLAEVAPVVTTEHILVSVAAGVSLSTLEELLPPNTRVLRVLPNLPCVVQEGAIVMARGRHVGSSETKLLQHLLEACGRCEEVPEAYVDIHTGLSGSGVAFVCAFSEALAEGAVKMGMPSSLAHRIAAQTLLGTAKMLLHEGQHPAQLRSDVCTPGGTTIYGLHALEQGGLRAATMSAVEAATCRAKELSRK
UniProt Q6PCE3: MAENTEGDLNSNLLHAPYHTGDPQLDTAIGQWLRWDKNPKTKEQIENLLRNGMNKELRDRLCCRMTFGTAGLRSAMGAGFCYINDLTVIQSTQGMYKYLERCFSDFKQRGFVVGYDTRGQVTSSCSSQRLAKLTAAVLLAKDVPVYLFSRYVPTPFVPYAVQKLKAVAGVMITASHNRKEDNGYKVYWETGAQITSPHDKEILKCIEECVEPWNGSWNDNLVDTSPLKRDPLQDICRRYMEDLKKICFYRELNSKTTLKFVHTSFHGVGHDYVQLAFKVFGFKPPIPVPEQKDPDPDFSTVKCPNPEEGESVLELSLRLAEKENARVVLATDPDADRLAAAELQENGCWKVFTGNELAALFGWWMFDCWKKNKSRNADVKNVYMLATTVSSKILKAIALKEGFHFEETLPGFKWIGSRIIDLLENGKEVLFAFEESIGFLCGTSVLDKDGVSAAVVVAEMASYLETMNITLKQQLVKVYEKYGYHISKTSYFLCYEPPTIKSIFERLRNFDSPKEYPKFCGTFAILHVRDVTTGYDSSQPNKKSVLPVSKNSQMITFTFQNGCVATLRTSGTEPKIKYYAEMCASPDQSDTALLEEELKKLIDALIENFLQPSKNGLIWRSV
UniProt Q641Q2, whole entry: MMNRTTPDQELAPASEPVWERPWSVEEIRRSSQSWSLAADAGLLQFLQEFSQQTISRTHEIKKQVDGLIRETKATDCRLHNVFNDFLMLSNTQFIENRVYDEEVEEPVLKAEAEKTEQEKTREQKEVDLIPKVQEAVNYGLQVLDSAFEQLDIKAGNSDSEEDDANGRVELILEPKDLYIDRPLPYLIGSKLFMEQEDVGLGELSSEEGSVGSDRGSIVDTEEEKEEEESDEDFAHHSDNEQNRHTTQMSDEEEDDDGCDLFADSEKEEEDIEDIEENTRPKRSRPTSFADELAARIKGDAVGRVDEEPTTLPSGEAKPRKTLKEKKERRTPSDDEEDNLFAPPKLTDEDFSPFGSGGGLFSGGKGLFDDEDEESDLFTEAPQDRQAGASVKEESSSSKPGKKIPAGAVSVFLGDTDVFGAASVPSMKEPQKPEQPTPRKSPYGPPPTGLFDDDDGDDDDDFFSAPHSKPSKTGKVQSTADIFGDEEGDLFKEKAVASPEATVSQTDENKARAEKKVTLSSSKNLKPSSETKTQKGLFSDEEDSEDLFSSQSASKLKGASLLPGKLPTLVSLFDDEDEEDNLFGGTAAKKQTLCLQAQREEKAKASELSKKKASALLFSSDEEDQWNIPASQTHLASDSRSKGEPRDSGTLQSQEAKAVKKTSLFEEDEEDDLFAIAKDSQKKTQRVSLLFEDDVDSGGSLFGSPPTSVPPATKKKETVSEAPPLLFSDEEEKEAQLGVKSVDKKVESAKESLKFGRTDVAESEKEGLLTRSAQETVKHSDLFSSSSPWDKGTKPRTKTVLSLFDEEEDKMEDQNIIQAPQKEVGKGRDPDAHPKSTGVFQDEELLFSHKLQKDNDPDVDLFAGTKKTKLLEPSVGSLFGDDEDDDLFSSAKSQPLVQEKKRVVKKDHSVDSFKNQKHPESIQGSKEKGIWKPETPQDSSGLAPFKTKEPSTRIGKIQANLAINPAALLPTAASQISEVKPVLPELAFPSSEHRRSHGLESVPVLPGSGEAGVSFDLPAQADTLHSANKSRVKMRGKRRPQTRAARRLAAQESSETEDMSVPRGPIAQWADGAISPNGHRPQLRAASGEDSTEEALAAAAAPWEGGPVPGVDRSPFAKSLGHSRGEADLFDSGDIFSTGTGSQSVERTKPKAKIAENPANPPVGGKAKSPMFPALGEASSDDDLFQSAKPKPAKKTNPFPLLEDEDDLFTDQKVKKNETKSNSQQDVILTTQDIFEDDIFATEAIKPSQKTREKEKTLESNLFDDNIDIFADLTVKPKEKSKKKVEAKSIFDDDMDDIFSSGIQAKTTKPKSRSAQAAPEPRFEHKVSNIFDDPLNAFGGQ
UniProt Q6GMV2: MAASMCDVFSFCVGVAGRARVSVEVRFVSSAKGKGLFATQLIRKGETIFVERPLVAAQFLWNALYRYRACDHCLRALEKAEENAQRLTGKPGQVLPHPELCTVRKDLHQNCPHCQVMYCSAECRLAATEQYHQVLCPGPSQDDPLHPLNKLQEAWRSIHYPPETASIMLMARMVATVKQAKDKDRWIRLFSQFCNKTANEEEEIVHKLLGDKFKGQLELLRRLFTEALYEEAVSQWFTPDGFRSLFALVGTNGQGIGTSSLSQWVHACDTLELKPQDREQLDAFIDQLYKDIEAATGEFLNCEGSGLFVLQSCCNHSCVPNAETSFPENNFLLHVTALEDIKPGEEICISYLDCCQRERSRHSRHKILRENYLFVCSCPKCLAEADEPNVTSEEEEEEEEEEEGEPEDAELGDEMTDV
UniProt Q5TEU4: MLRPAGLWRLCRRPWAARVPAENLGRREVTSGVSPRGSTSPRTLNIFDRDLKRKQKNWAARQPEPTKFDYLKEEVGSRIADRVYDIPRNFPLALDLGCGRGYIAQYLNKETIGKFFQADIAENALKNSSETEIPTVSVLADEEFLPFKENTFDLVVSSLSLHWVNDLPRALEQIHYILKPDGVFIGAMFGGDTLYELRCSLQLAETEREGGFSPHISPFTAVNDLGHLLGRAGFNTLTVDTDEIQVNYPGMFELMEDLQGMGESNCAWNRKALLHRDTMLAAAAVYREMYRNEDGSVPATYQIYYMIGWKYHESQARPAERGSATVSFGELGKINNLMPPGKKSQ
UniProt Q6IN85: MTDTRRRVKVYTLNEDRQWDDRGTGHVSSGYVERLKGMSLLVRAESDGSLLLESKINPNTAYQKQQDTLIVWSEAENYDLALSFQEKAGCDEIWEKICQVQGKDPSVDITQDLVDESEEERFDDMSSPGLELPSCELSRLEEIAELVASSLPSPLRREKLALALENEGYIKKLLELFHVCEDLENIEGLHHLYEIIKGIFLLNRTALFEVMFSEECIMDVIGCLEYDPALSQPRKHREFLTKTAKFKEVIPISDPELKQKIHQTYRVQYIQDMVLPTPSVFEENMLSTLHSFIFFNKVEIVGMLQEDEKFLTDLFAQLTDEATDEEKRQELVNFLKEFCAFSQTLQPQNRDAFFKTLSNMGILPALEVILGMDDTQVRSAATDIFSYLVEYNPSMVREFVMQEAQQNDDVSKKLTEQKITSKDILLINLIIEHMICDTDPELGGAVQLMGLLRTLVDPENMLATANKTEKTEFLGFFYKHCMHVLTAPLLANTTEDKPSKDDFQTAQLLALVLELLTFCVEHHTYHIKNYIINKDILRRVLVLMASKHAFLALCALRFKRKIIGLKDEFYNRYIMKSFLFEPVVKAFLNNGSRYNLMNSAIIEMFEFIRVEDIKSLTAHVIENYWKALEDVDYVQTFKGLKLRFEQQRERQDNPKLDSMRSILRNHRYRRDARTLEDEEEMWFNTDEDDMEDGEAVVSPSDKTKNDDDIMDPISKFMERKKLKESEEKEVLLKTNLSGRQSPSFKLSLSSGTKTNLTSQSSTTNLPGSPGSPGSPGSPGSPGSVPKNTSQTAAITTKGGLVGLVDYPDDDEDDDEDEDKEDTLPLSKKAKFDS
UniProt Q4VC05, whole entry: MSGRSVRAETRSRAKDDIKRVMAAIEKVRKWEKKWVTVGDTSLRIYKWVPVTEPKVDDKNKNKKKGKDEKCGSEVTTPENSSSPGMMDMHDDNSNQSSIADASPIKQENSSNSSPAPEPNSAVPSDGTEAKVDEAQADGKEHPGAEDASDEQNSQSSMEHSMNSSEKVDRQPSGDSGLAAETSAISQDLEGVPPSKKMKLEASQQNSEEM
UniProt Q6IC98: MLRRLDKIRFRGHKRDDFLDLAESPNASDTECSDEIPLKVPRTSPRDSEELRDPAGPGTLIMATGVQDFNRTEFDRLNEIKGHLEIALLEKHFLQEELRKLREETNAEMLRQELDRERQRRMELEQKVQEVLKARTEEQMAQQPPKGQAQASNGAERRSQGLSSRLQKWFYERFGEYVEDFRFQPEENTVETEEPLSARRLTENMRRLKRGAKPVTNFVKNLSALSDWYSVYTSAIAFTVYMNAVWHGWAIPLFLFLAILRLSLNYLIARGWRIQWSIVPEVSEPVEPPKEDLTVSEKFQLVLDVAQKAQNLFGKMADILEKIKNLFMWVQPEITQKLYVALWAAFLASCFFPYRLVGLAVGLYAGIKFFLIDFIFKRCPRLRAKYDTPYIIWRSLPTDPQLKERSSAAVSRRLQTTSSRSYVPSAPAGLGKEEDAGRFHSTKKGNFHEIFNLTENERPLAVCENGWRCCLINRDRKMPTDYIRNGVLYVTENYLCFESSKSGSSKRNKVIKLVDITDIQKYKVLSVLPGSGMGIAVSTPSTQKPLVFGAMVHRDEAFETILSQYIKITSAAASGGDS
UniProt Q6NZY4: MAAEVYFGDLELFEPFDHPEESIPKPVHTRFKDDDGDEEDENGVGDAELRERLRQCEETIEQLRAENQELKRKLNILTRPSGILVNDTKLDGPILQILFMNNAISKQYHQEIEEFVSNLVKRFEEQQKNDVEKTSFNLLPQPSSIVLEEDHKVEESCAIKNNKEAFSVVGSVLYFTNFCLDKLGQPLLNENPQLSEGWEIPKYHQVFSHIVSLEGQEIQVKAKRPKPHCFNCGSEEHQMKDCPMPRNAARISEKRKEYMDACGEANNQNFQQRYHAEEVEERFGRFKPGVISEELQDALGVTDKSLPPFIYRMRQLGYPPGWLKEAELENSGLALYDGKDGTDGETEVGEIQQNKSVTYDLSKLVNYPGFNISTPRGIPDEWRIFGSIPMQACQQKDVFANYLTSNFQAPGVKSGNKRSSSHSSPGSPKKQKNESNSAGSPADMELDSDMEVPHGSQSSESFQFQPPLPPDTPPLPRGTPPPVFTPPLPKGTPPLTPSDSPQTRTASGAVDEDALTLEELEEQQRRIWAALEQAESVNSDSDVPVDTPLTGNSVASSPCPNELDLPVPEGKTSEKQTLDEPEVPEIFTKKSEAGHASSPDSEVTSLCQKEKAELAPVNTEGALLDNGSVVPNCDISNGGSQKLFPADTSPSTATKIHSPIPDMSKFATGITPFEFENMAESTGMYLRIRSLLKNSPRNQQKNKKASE
UniProt Q6IQ32: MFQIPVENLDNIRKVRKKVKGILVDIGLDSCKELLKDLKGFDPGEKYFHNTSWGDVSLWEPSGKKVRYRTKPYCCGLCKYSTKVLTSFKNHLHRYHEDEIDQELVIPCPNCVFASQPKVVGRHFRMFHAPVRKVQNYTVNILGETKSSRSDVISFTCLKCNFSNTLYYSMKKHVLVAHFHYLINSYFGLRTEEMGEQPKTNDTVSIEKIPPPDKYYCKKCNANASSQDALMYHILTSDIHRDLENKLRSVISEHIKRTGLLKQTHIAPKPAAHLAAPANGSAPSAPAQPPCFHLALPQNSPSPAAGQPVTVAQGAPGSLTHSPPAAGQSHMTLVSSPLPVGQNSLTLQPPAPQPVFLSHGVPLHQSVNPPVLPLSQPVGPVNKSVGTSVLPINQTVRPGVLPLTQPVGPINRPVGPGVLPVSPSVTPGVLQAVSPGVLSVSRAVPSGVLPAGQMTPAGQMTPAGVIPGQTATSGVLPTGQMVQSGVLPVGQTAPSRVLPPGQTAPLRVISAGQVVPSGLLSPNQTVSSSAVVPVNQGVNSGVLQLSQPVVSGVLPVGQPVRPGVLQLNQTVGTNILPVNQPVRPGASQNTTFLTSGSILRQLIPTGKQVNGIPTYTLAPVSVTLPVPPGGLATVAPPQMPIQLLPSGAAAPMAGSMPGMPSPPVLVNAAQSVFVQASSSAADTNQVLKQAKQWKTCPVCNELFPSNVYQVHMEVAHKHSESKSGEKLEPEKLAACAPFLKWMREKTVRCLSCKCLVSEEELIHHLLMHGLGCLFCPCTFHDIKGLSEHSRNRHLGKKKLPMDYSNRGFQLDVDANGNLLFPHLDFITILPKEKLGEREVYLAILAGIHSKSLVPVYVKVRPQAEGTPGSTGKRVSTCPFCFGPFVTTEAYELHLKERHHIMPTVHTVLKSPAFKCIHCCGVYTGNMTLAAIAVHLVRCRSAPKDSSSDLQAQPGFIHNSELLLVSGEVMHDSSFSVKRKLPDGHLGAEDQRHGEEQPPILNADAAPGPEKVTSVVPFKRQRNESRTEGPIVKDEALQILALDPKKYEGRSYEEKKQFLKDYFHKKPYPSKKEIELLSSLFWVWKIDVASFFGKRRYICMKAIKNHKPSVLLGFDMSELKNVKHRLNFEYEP

Compound: Nc1ncnc2c1ncn2[C@@H]1O[C@H](COP(=O)(O)OP(=O)(O)OP(=O)(O)O)[C@@H](O)[C@H]1O [adenosine triphosphate]
Assay: NP40-soluble protein abundance relative to vehicle (solubility fold change) (ratio); higher = more soluble protein in presence of ATP
Outline: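 Eight concentrations, 0.1 to 10 mM, were tested on Jurkat crude lysate for 10 min at room temperature and then 3 min at 37 °C, in three independent experiments. The lysate was solubilised with 0.8% NP40 and benzonase, ultracentrifuged, and the supernatant TMT-labelled for LC-MS/MS. Each value is the fold change against the detergent-processed vehicle in its own replicate, from vsn-normalised intensities.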

Target	NP40-soluble protein abundance (concentration: 0.1mM)	NP40-soluble protein abundance (concentration: 0.5mM)	NP40-soluble protein abundance (concentration: 1mM)	NP40-soluble protein abundance (concentration: 2mM)	NP40-soluble protein abundance (concentration: 4mM)	NP40-soluble protein abundance (concentration: 6mM)	NP40-soluble protein abundance (concentration: 8mM)	NP40-soluble protein abundance (concentration: 10mM)
C6ORF134 (UniProt Q5SQI0)	0.9649 ± 0.0057	0.921 ± 0.022	0.975 ± 0.073	0.98 ± 0.089	0.981 ± 0.064	0.999 ± 0.09	0.983 ± 0.029	0.998 ± 0.04
UniProt Q53H96 and related entries	1.01 ± 0.07	0.999 ± 0.11	1.04 ± 0.076	1.06 ± 0.1	1.09 ± 0.08	1.01 ± 0.14	1.03 ± 0.11	1.03 ± 0.1
PGM2L1 (UniProt Q6PCE3)	0.999 ± 0.052	1.02 ± 0.011	–	–	–	–	–	–
UniProt Q641Q2 and related entries	1.02 ± 0.032	0.983 ± 0.044	0.968 ± 0.057	0.9815 ± 0.0096	0.938 ± 0.033	0.94 ± 0.094	0.895 ± 0.05	0.896 ± 0.047
RNF123 (UniProt Q5XPI4)	0.985 ± 0.038	0.971 ± 0.028	–	–	–	–	–	–
SMYD5 (UniProt Q6GMV2)	1.04 ± 0.06	0.9903 ± 0.002	–	–	–	–	–	–
Q5VVD7 and related entries (UniProt Q8IWE5)	1.04 ± 0.053	0.979 ± 0.037	0.929 ± 0.047	0.998 ± 0.048	0.932 ± 0.04	0.953 ± 0.036	0.95 ± 0.04	0.955 ± 0.03
UniProt Q5TEU4 and related entries	1.05 ± 0.06	1.1 ± 0.082	–	–	–	–	–	–
CEP135 (UniProt Q66GS9)	0.9923 ± 0.0053	0.984 ± 0.05	0.983 ± 0.041	0.966 ± 0.026	0.964 ± 0.038	0.956 ± 0.036	0.972 ± 0.029	0.989 ± 0.047
UniProt Q6P2H3 and related entries	0.95 ± 0.048	0.939 ± 0.032	–	–	–	–	–	–
TBCEL (UniProt Q5QJ74)	1.14 ± 0.087	1.04 ± 0.061	–	–	–	–	–	–
UniProt Q6KCM7-2|Q6KCM7-3|Q6KCM7 and related entries	1.054 ± 0.0011	1.02 ± 0.018	0.871 ± 0.048	0.884 ± 0.061	0.831 ± 0.012	0.758 ± 0.085	0.868 ± 0.039	0.894 ± 0.026
UniProt Q6IN85	0.994 ± 0.055	1.03 ± 0.055	1.03 ± 0.066	0.979 ± 0.042	0.946 ± 0.041	0.991 ± 0.048	0.956 ± 0.047	0.935 ± 0.08
UniProt Q4VC05 and related entries	0.81 ± 0.044	0.872 ± 0.17	–	–	–	–	–	–
GRAMD4 (UniProt Q6IC98)	1.04 ± 0.037	1.02 ± 0.056	1.01 ± 0.02	0.998 ± 0.02	0.994 ± 0.035	1.02 ± 0.031	1.02 ± 0.025	1.01 ± 0.02
Q5QPA5 and related entries (UniProt Q9NVS2)	0.951 ± 0.18	0.988 ± 0.16	1.07 ± 0.12	0.926 ± 0.14	0.879 ± 0.17	0.946 ± 0.39	0.887 ± 0.24	0.818 ± 0.2
LYPLAL1 (UniProt Q5VWZ2)	0.97 ± 0.057	0.985 ± 0.018	0.942 ± 0.077	0.936 ± 0.066	0.892 ± 0.048	0.879 ± 0.12	0.883 ± 0.03	0.904 ± 0.057
UniProt Q6NW34 and related entries	0.881 ± 0.13	0.831 ± 0.1	0.863 ± 0.078	0.831 ± 0.11	0.792 ± 0.15	0.892 ± 0.11	0.84 ± 0.14	0.785 ± 0.21
ZCCHC8 (UniProt Q6NZY4)	0.989 ± 0.067	0.967 ± 0.066	–	–	–	–	–	–
ADNP2 (UniProt Q6IQ32)	0.991 ± 0.13	1.011 ± 0.0053	–	–	–	–	–	–
UniProt Q5T280	0.958 ± 0.062	1.06 ± 0.035	1.03 ± 0.085	1.08 ± 0.077	1.23 ± 0.12	1.47 ± 0.17	1.52 ± 0.21	1.83 ± 0.22
UniProt Q52LJ0-2	0.992 ± 0.036	0.957 ± 0.017	–	–	–	–	–	–
UniProt Q58A45 and related entries	0.94 ± 0.013	1.06 ± 0.034	–	–	–	–	–	–

Pulled one by one from the entries so far:
Target	NP40-soluble protein abundance (concentration: 0.1mM)	NP40-soluble protein abundance (concentration: 0.5mM)	NP40-soluble protein abundance (concentration: 1mM)	NP40-soluble protein abundance (concentration: 2mM)	NP40-soluble protein abundance (concentration: 4mM)	NP40-soluble protein abundance (concentration: 6mM)	NP40-soluble protein abundance (concentration: 8mM)	NP40-soluble protein abundance (concentration: 10mM)
C6ORF134 (UniProt Q5SQI0)	0.9649 ± 0.0057	0.921 ± 0.022	0.975 ± 0.073	0.98 ± 0.089	0.981 ± 0.064	0.999 ± 0.09	0.983 ± 0.029	0.998 ± 0.04
Q5QPA5 and related entries (UniProt Q9NVS2)	0.951 ± 0.18	0.988 ± 0.16	1.07 ± 0.12	0.926 ± 0.14	0.879 ± 0.17	0.946 ± 0.39	0.887 ± 0.24	0.818 ± 0.2
